# Assay results published in PMC9897797.
# Amino acid sequences for entries named in this document (tags omitted). Residues count along the entry.
# UniProt Q9NRX3: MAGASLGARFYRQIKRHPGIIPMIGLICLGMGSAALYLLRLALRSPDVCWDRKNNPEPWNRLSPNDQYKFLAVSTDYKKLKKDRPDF
# UniProt Q9UBQ5: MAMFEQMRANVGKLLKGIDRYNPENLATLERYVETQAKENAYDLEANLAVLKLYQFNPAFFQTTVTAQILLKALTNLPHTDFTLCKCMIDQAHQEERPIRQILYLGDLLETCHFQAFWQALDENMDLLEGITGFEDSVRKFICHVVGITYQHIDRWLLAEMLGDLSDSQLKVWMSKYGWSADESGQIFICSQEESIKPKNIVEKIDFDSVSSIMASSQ
# UniProt P06733: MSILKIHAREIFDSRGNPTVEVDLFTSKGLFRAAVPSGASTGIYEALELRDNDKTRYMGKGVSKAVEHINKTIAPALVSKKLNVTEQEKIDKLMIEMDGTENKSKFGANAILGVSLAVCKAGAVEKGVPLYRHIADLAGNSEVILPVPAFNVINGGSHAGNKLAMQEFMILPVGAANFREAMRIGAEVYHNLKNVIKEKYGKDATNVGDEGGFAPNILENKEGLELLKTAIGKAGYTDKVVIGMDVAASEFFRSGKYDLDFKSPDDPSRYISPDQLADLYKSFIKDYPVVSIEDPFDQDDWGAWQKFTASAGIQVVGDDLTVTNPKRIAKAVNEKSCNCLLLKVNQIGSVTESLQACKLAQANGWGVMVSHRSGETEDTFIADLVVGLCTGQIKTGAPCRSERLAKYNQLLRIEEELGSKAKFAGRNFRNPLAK
# UniProt O94925, residues 55-669: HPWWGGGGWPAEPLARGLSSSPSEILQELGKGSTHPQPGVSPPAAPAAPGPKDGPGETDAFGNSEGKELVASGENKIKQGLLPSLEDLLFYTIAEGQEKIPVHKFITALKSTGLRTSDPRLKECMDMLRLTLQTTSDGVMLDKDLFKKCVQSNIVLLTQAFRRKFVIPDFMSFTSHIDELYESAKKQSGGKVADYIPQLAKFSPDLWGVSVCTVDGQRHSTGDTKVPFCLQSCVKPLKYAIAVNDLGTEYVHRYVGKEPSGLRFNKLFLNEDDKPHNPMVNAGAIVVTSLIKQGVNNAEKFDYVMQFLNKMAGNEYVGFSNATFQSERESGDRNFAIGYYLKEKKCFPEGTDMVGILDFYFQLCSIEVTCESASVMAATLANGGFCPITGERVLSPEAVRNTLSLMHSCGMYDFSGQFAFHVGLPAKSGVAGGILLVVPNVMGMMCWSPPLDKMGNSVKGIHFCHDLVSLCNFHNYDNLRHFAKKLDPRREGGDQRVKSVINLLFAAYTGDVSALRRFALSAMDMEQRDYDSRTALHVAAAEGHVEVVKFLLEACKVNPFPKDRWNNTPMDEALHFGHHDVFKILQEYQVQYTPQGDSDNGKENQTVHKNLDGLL
# UniProt P55786: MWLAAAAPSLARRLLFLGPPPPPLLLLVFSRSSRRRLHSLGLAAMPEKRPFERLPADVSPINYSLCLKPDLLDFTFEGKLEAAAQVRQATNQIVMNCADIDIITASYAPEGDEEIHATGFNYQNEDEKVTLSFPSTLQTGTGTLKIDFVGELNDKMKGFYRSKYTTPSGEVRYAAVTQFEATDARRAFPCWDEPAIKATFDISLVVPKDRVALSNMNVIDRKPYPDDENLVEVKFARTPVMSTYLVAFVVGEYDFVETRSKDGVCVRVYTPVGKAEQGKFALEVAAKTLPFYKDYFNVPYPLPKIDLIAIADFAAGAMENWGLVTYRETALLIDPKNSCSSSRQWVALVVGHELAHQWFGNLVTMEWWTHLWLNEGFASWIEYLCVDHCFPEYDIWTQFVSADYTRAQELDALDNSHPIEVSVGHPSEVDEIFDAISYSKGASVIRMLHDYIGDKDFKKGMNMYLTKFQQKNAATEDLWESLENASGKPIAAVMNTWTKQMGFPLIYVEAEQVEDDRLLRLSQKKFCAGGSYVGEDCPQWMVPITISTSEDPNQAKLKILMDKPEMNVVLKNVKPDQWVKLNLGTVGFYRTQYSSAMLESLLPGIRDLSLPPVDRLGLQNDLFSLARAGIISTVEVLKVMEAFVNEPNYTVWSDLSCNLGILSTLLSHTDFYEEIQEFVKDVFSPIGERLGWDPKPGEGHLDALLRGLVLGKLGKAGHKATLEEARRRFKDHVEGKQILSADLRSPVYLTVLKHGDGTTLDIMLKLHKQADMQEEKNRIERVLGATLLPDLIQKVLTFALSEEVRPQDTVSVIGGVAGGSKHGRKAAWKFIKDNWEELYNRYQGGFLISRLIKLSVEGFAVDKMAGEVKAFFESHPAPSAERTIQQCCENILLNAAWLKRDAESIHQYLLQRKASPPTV
# UniProt O15118, residues 23-1278: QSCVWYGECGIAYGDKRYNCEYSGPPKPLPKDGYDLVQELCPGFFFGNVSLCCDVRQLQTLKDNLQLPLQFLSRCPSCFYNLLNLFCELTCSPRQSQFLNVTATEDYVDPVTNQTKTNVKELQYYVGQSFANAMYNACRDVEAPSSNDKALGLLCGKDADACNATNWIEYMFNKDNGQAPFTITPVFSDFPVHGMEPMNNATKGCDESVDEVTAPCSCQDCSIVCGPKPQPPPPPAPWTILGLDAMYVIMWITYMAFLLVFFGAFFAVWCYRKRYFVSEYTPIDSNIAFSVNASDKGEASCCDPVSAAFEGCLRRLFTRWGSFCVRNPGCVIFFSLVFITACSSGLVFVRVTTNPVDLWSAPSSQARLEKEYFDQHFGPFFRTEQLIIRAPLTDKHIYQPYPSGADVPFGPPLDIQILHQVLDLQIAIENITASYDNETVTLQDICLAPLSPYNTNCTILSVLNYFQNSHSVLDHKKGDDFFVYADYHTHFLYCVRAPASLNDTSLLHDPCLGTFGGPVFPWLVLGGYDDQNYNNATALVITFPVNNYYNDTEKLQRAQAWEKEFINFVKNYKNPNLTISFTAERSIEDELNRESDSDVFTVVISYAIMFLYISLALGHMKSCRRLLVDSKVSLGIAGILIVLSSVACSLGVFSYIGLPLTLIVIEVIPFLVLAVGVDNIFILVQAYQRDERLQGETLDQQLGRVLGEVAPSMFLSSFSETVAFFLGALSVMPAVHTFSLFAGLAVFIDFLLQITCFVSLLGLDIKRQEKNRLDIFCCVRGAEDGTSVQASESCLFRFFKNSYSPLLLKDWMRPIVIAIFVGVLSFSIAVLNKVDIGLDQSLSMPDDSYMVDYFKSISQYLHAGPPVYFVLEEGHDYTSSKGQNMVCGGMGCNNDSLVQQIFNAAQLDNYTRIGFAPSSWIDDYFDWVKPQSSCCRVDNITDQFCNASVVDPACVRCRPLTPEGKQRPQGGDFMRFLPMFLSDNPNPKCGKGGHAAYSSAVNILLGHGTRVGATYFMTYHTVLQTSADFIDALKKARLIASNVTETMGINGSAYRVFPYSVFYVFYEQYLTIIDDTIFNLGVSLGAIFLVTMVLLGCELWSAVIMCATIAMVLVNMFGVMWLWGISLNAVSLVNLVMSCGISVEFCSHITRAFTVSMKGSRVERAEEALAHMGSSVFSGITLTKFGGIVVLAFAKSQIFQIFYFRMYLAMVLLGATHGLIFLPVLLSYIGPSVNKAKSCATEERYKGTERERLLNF
# UniProt P12004: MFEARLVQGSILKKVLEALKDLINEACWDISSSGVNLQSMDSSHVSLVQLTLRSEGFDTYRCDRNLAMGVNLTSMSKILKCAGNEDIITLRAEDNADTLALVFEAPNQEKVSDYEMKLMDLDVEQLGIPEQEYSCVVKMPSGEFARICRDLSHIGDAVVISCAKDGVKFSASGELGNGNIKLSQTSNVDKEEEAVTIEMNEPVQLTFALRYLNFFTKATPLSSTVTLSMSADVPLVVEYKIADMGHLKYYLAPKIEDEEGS
# UniProt P35080: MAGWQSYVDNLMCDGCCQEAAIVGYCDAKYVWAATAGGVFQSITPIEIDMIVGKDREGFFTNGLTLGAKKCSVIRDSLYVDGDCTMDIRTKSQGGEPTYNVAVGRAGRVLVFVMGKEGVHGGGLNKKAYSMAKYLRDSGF
# UniProt P36543: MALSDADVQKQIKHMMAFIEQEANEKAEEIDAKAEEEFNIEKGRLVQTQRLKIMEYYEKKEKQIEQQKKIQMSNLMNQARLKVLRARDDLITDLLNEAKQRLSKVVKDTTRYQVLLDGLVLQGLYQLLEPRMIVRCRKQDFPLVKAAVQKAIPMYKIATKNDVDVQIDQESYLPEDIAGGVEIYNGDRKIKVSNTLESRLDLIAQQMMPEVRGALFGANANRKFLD
# UniProt P11413: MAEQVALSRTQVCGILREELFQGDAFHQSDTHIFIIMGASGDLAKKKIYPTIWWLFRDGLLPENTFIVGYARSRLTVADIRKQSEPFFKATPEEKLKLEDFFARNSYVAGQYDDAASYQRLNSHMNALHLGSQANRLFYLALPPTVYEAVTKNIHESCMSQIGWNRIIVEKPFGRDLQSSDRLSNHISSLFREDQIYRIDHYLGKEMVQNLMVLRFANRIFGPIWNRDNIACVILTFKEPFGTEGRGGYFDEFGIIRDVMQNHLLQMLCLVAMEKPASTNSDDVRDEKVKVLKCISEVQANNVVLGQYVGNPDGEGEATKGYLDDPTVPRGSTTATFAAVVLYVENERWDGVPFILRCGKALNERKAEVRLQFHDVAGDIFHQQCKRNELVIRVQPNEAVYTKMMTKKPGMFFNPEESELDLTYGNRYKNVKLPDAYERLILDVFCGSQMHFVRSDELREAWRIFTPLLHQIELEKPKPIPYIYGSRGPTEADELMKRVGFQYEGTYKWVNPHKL
# UniProt P0DMV8: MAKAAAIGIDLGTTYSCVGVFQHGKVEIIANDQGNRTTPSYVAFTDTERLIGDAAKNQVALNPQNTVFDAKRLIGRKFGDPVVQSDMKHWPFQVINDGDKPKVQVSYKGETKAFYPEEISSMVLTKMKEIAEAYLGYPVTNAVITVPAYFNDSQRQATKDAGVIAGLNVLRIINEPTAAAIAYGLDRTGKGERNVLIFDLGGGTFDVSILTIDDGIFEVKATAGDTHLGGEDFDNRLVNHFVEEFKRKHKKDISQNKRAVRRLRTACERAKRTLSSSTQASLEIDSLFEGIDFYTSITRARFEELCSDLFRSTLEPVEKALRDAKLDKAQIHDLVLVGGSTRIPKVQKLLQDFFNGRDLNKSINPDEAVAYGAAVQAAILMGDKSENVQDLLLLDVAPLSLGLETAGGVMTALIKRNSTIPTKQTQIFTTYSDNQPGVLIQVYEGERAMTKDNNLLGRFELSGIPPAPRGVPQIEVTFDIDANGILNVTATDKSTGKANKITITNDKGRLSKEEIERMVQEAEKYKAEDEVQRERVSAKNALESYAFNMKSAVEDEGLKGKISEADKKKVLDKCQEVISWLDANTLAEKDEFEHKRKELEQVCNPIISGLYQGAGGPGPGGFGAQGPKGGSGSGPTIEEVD
# UniProt P28838: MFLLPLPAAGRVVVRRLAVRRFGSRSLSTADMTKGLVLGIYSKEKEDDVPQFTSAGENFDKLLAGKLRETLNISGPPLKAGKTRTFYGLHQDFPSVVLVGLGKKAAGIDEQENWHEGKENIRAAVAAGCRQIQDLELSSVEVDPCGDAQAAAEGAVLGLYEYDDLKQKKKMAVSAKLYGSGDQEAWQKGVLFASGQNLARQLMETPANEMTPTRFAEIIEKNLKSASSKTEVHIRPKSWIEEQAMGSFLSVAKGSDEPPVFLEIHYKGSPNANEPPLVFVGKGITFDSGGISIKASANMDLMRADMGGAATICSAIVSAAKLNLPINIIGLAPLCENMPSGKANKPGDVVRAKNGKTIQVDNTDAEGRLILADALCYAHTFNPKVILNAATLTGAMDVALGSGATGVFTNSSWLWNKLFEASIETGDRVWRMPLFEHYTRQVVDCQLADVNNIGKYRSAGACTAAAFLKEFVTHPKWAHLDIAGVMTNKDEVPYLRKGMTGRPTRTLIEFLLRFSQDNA
# UniProt Q16401: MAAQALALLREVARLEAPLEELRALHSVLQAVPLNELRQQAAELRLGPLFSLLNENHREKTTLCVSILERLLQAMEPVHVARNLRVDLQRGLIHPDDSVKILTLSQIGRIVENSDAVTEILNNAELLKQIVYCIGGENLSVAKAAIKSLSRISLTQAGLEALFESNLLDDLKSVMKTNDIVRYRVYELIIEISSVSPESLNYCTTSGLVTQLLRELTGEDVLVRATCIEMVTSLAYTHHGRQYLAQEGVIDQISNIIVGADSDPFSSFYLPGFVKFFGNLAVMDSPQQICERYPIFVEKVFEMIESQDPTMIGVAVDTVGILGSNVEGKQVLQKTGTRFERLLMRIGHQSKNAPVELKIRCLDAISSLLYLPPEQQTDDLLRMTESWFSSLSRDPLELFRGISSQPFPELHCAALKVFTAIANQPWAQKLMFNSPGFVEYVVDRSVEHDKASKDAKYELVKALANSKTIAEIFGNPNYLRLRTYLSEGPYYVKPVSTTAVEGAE
# No constants are given. Whether binding was seen depends on the method and setting. Binding seen in cells or lysates may run through a third protein. A yes stands for co-enrichment or nearness to the bait. Other partners may have been found.
# Molecular target: NADH dehydrogenase (ubiquinone) 1 alpha subcomplex, 4-like 2 (human (endogenous in RCC4)) (UniProt Q9NRX3)
# Assay: affinity purification with mass spectrometry; NDUFA4L2 antibody (Abcam ab74138) coupled to Dynabeads M-270 Epoxy; 2 mg RIPA lysate of RCC4-P cells, 12 hours at 4°C, three washes in RIPA buffer; LC-MS/MS, label-free; controls: RCC4-KO-643 (NDUFA4L2 knockout) lysate and IgG beads
row,Molecule,binding
1,EIF3K (from UniProt Q9UBQ5 1-218),binds
2,ENO1 (from UniProt P06733 1-434),binds
3,FLNA (from UniProt P21333 1-2647),binds
4,GLS (from UniProt O94925 55-669),binds
5,NPEPPS (from UniProt P55786 1-919),binds
6,Niemann-Pick Disease Type C Intracellular Cholesterol Transporter 1 (from UniProt O15118 23-1278),binds
7,PCNA (from UniProt P12004 1-261),binds
8,PFN2 (from UniProt P35080 1-140),binds
9,PSMB4 (from UniProt P28070),binds
10,"PA2G4 (protein, UniProt Q9UQ80 1-394) MSGEDEQQEQTIAEDLVVTKYKMGGDIANRVLRSLVEASSSGVSVLSLCEKGDAMIMEETGKIFKKEKEMKKGIAFPTSISVNNCVCHFSPLKSDQDYILKEGDLVKIDLGVHVDGFIANVAHTFVVDVAQGTQVTGRKADVIKAAHLCAEAALRLVKPGNQNTQVTEAWNKVAHSFNCTPIEGMLSHQLKQHVIDGEKTIIQNPTDQQKKDHEKAEFEVHEVYAVDVLVSSGEGKAKDAGQRTTIYKRDPSKQYGLKMKTSRAFFSEVERRFDAMPFTLRAFEDEKKARMGVVECAKHELLQPFNVLYEKEGEFVAQFKFTVLLMPNGPMRITSGPFEPDLYKSEMEVQDAELKALLQSSASRKTQKKKKKKASKTAENATSGETLEENEAGD",binds
11,"EHD2 (protein, UniProt Q9NZN4 1-543) MFSWLKRGGARGQQPEAIRTVTSALKELYRTKLLPLEEHYRFGAFHSPALEDADFDGKPMVLVAGQYSTGKTSFIQYLLEQEVPGSRVGPEPTTDCFVAVMHGDTEGTVPGNALVVDPDKPFRKLNPFGNTFLNRFMCAQLPNQVLESISIIDTPGILSGAKQRVSRGYDFPAVLRWFAERVDLIILLFDAHKLEISDEFSEAIGALRGHEDKIRVVLNKADMVETQQLMRVYGALMWALGKVVGTPEVLRVYIGSFWSQPLLVPDNRRLFELEEQDLFRDIQGLPRHAALRKLNDLVKRARLVRVHAYIISYLKKEMPSVFGKENKKKQLILKLPVIFAKIQLEHHISPGDFPDCQKMQELLMAHDFTKFHSLKPKLLEALDEMLTHDIAKLMPLLRQEELESTEVGVQGGAFEGTHMGPFVERGPDEAMEDGEEGSDDEAEWVVTKDKSKYDEIFYNLAPADGKLSGSKAKTWMVGTKLPNSVLGRIWKLSDVDRDGMLDDEEFALASHLIEAKLEGHGLPANLPRRLVPPSKRRHKGSAE",binds
12,"Niemann-Pick Disease Type C Intracellular Cholesterol Transporter 2 (protein, UniProt P61916 20-151) EPVQFKDCGSVDGVIKEVNVSPCPTQPCQLSKGQSYSVNVTFTSNIQSKSSKAVVHGILMGVPVPFPIPEPDGCKSGINCPIQKDKTYSYLNKLPVKSEYPSIKLVVEWQLQDDKNQSLFCWEIPVQIVSHL",binds

# Now from value to molecule:
row,binding,Molecule
1,binds,AHNAK2 (from UniProt Q8IVF2 1-5795)
2,binds,ATP6V1 E1 (from UniProt P36543 1-226)
3,binds,CAPZA2 (from UniProt P47755 1-286)
4,binds,G6PD (from UniProt P11413 1-515)
5,binds,HSPA1A (from UniProt P0DMV8 1-641)
6,binds,LAP3 (from UniProt P28838 1-519)
7,binds,MYOF (from UniProt Q9NZM1 1-2061)
8,binds,PRKDC (from UniProt P78527 1-4128)
9,binds,PSMD5 (from UniProt Q16401 1-504)
10,binds,VCP (from UniProt P55072 1-806)
11,binds,"DARS (protein, UniProt P14868 1-501) MPSASASRKSQEKPREIMDAAEDYAKERYGISSMIQSQEKPDRVLVRVRDLTIQKADEVVWVRARVHTSRAKGKQCFLVLRQQQFNVQALVAVGDHASKQMVKFAANINKESIVDVEGVVRKVNQKIGSCTQQDVELHVQKIYVISLAEPRLPLQLDDAVRPEAEGEEEGRATVNQDTRLDNRVIDLRTSTSQAVFRLQSGICHLFRETLINKGFVEIQTPKIISAASEGGANVFTVSYFKNNAYLAQSPQLYKQMCICADFEKVFSIGPVFRAEDSNTHRHLTEFVGLDIEMAFNYHYHEVMEEIADTMVQIFKGLQERFQTEIQTVNKQFPCEPFKFLEPTLRLEYCEALAMLREAGVEMGDEDDLSTPNEKLLGHLVKEKYDTDFYILDKYPLAVRPFYTMPDPRNPKQSNSYDMFMRGEEILSGAQRIHDPQLLTERALHHGIDLEKIKAYIDSFRFGAPPHAGGGIGLERVTMLFLGLHNVRQTSMFPRDPKRLTP"
12,binds,"PSAT1 (protein, UniProt Q9Y617 1-370) MDAPRQVVNFGPGPAKLPHSVLLEIQKELLDYKGVGISVLEMSHRSSDFAKIINNTENLVRELLAVPDNYKVIFLQGGGCGQFSAVPLNLIGLKAGRCADYVVTGAWSAKAAEEAKKFGTINIVHPKLGSYTKIPDPSTWNLNPDASYVYYCANETVHGVEFDFIPDVKGAVLVCDMSSNFLSKPVDVSKFGVIFAGAQKNVGSAGVTVVIVRDDLLGFALRECPSVLEYKVQAGNSSLYNTPPCFSIYVMGLVLEWIKNNGGAAAMEKLSSIKSQTIYEIIDNSQGFYVCPVEPQNRSKMNIPFRIGNAKGDDALEKRFLDKALELNMLSLKGHRSVGGIRASLYNAVTIEDVQKLAAFMKKFLEMHQL"
13,binds,"MARS (protein, UniProt P56192 1-900) MRLFVSDGVPGCLPVLAAAGRARGRAEVLISTVGPEDCVVPFLTRPKVPVLQLDSGNYLFSTSAICRYFFLLSGWEQDDLTNQWLEWEATELQPALSAALYYLVVQGKKGEDVLGSVRRALTHIDHSLSRQNCPFLAGETESLADIVLWGALYPLLQDPAYLPEELSALHSWFQTLSTQEPCQRAAETVLKQQGVLALRPYLQKQPQPSPAEGRAVTNEPEEEELATLSEEEIAMAVTAWEKGLESLPPLRPQQNPVLPVAGERNVLITSALPYVNNVPHLGNIIGCVLSADVFARYSRLRQWNTLYLCGTDEYGTATETKALEEGLTPQEICDKYHIIHADIYRWFNISFDIFGRTTTPQQTKITQDIFQQLLKRGFVLQDTVEQLRCEHCARFLADRFVEGVCPFCGYEEARGDQCDKCGKLINAVELKKPQCKVCRSCPVVQSSQHLFLDLPKLEKRLEEWLGRTLPGSDWTPNAQFITRSWLRDGLKPRCITRDLKWGTPVPLEGFEDKVFYVWFDATIGYLSITANYTDQWERWWKNPEQVDLYQFMAKDNVPFHSLVFPCSALGAEDNYTLVSHLIATEYLNYEDGKFSKSRGVGVFGDMAQDTGIPADIWRFYLLYIRPEGQDSAFSWTDLLLKNNSELLNNLGNFINRAGMFVSKFFGGYVPEMVLTPDDQRLLAHVTLELQHYHQLLEKVRIRDALRSILTISRHGNQYIQVNEPWKRIKGSEADRQRAGTVTGLAVNIAALLSVMLQPYMPTVSATIQAQLQLPPPACSILLTNFLCTLPAGHQIGTVSPLFQKLENDQIESLRQRFGGGQAKTSPKPAVVETVTTAKPQQIQALMDEVTKQGNIVRELKAQKADKNEVAAEVAKLLDLKKQLAVAEGKPPEAPKGKKKK"
14,binds,"RARS (protein, UniProt P54136 1-660) MDVLVSECSARLLQQEEEIKSLTAEIDRLKNCGCLGASPNLEQLQEENLKLKYRLNILRKSLQAERNKPTKNMINIISRLQEVFGHAIKAAYPDLENPPLLVTPSQQAKFGDYQCNSAMGISQMLKTKEQKVNPREIAENITKHLPDNECIEKVEIAGPGFINVHLRKDFVSEQLTSLLVNGVQLPALGENKKVIVDFSSPNIAKEMHVGHLRSTIIGESISRLFEFAGYDVLRLNHVGDWGTQFGMLIAHLQDKFPDYLTVSPPIGDLQVFYKESKKRFDTEEEFKKRAYQCVVLLQGKNPDITKAWKLICDVSRQELNKIYDALDVSLIERGESFYQDRMNDIVKEFEDRGFVQVDDGRKIVFVPGCSIPLTIVKSDGGYTYDTSDLAAIKQRLFEEKADMIIYVVDNGQSVHFQTIFAAAQMIGWYDPKVTRVFHAGFGVVLGEDKKKFKTRSGETVRLMDLLGEGLKRSMDKLKEKERDKVLTAEELNAAQTSVAYGCIKYADLSHNRLNDYIFSFDKMLDDRGNTAAYLLYAFTRIRSIARLANIDEEMLQKAARETKILLDHEKEWKLGRCILRFPEILQKILDDLFLHTLCDYIYELATAFTEFYDSCYCVEKDRQTGKILKVNMWRMLLCEAVAAVMAKGFDILGIKPVQRM"
15,binds,"ETFA (protein, UniProt P13804 20-333) QSTLVIAEHANDSLAPITLNTITAATRLGGEVSCLVAGTKCDKVAQDLCKVAGIAKVLVAQHDVYKGLLPEELTPLILATQKQFNYTHICAGASAFGKNLLPRVAAKLEVAPISDIIAIKSPDTFVRTIYAGNALCTVKCDEKVKVFSVRGTSFDAAATSGGSASSEKASSTSPVEISEWLDQKLTKSDRPELTGAKVVVSGGRGLKSGENFKLLYDLADQLHAAVGASRAAVDAGFVPNDMQVGQTGKIVAPELYIAVGISGAIQHLAGMKDSKTIVAINKDPEAPIFQVADYGIVADLFKVVPEMTEILKKK"
